Measured values as given in the supplement of paper PMC8728848.
The list shows a part of the results.

Experiments:
Experiment in all cases: glycan array binding signal (z-score within array); higher = stronger binding
Details in all cases: glycan notation: IUPAC condensed, linker removed
GlcNAc(b1-3)Gal(b1-4)Glc = target: GlcNAc(b1-3)Gal(b1-4)Glc
Outline: (§1)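 Arrays were curated from the Consortium for Functional Glycomics database, 3228 in total, and kept only where the protein sequence was available. Binding is expressed as a within-array Z-score. This score was averaged across arrays of the same protein sequence at different concentrations or buffers and across linkers, and negative values can be read as non-binding.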

[1] = target: GlcNAc(b1-3)Gal(b1-4)GlcNAc
Outline: as §1

[2] = target: GlcNAc(b1-3)Gal(b1-4)GlcNAc(b1-2)Man(a1-3)[GlcNAc(b1-3)Gal(b1-4)GlcNAc(b1-2)Man(a1-6)]Man(b1-4)GlcNAc(b1-4)GlcNAc
Outline: as §1

[3] = target: GlcNAc(b1-3)Gal(b1-4)GlcNAc(b1-2)Man(a1-3)[GlcNAc(b1-3)Gal(b1-4)GlcNAc(b1-2)Man(a1-6)]Man(b1-4)GlcNAc(b1-4)[Fuc(a1-6)]GlcNAc
Outline: as §1

[4] = target: GlcNAc(b1-3)Gal(b1-4)GlcNAc(b1-2)[GlcNAc(b1-3)Gal(b1-4)GlcNAc(b1-6)]Man(a1-6)[GlcNAc(b1-3)Gal(b1-4)GlcNAc(b1-2)Man(a1-3)]Man(b1-4)GlcNAc(b1-4)GlcNAc
Outline: as §1

[5] = target: GlcNAc(b1-3)Gal(b1-4)GlcNAc(b1-3)Gal(b1-4)GlcNAc
Outline: as §1

[6] = target: GlcNAc(b1-3)Gal(b1-4)GlcNAc(b1-3)Gal(b1-4)GlcNAc(b1-2)Man(a1-3)[GlcNAc(b1-3)Gal(b1-4)GlcNAc(b1-3)Gal(b1-4)GlcNAc(b1-2)Man(a1-6)]Man(b1-4)GlcNAc(b1-4)GlcNAc
Outline: as §1

[7] = target: GlcNAc(b1-3)Gal(b1-4)GlcNAc(b1-3)Gal(b1-4)GlcNAc(b1-2)Man(a1-3)[GlcNAc(b1-3)Gal(b1-4)GlcNAc(b1-3)Gal(b1-4)GlcNAc(b1-2)Man(a1-6)]Man(b1-4)GlcNAc(b1-4)[Fuc(a1-6)]GlcNAc
Outline: as §1

[8] = target: GlcNAc(b1-3)Gal(b1-4)GlcNAc(b1-3)Gal(b1-4)GlcNAc(b1-2)[GlcNAc(b1-3)Gal(b1-4)GlcNAc(b1-3)Gal(b1-4)GlcNAc(b1-6)]Man(a1-6)[GlcNAc(b1-3)Gal(b1-4)GlcNAc(b1-3)Gal(b1-4)GlcNAc(b1-2)Man(a1-3)]Man(b1-4)GlcNAc(b1-4)[Fuc(a1-6)]GlcNAc
Outline: as §1

[9] = target: GlcNAc(b1-3)Gal(b1-4)GlcNAc(b1-3)Gal(b1-4)GlcNAc(b1-3)Gal(b1-4)GlcNAc(b1-2)Man(a1-3)[GlcNAc(b1-3)Gal(b1-4)GlcNAc(b1-3)Gal(b1-4)GlcNAc(b1-3)Gal(b1-4)GlcNAc(b1-2)Man(a1-6)]Man(b1-4)GlcNAc(b1-4)GlcNAc
Outline: as §1

[10] = target: GlcNAc(b1-3)Gal(b1-4)GlcNAc(b1-3)Gal(b1-4)GlcNAc(b1-3)Gal(b1-4)GlcNAc(b1-2)Man(a1-3)[GlcNAc(b1-3)Gal(b1-4)GlcNAc(b1-3)Gal(b1-4)GlcNAc(b1-3)Gal(b1-4)GlcNAc(b1-2)Man(a1-6)]Man(b1-4)GlcNAc(b1-4)[Fuc(a1-6)]GlcNAc
Outline: as §1

[11] = target: GlcNAc(b1-3)Gal(b1-4)GlcNAc(b1-3)Gal(b1-4)GlcNAc(b1-3)Gal(b1-4)GlcNAc(b1-2)[GlcNAc(b1-3)Gal(b1-4)GlcNAc(b1-3)Gal(b1-4)GlcNAc(b1-3)Gal(b1-4)GlcNAc(b1-6)]Man(a1-6)[GlcNAc(b1-3)Gal(b1-4)GlcNAc(b1-3)Gal(b1-4)GlcNAc(b1-3)Gal(b1-4)GlcNAc(b1-2)Man(a1-3)]Man(b1-4)GlcNAc(b1-4)[Fuc(a1-6)]GlcNAc
Outline: as §1

[12] = target: GlcNAc(b1-3)Gal(b1-4)GlcNAc(b1-3)Gal(b1-4)GlcNAc(b1-3)Gal(b1-4)GlcNAc(b1-3)Gal(b1-4)GlcNAc(b1-2)Man(a1-3)[GlcNAc(b1-3)Gal(b1-4)GlcNAc(b1-3)Gal(b1-4)GlcNAc(b1-3)Gal(b1-4)GlcNAc(b1-3)Gal(b1-4)GlcNAc(b1-2)Man(a1-6)]Man(b1-4)GlcNAc(b1-4)GlcNAc
Outline: as §1

[13] = target: GlcNAc(b1-3)Gal(b1-4)GlcNAc(b1-3)Gal(b1-4)GlcNAc(b1-3)Gal(b1-4)GlcNAc(b1-3)Gal(b1-4)GlcNAc(b1-2)Man(a1-3)[GlcNAc(b1-3)Gal(b1-4)GlcNAc(b1-3)Gal(b1-4)GlcNAc(b1-3)Gal(b1-4)GlcNAc(b1-3)Gal(b1-4)GlcNAc(b1-2)Man(a1-6)]Man(b1-4)GlcNAc(b1-4)[Fuc(a1-6)]GlcNAc
Outline: as §1

[14] = target: GlcNAc(b1-3)Gal(b1-4)GlcNAc(b1-3)Gal(b1-4)GlcNAc(b1-3)Gal(b1-4)GlcNAc(b1-3)Gal(b1-4)GlcNAc(b1-2)[GlcNAc(b1-3)Gal(b1-4)GlcNAc(b1-3)Gal(b1-4)GlcNAc(b1-3)Gal(b1-4)GlcNAc(b1-3)Gal(b1-4)GlcNAc(b1-6)]Man(a1-6)[GlcNAc(b1-3)Gal(b1-4)GlcNAc(b1-3)Gal(b1-4)GlcNAc(b1-3)Gal(b1-4)GlcNAc(b1-3)Gal(b1-4)GlcNAc(b1-2)Man(a1-3)]Man(b1-4)GlcNAc(b1-4)[Fuc(a1-6)]GlcNAc
Outline: as §1

[15] = target: GlcNAc(b1-3)Gal(b1-4)GlcNAc(b1-3)Gal(b1-4)GlcNAc(b1-3)GalNAc
Outline: as §1

[16] = target: GlcNAc(b1-3)Gal(b1-4)GlcNAc(b1-3)GalNAc
Outline: as §1

[17] = target: GlcNAc(b1-3)Gal(b1-4)GlcNAc(b1-3)[GlcNAc(b1-3)Gal(b1-4)GlcNAc(b1-3)]GalNAc
Outline: as §1

[18] = target: GlcNAc(b1-3)Gal(b1-4)GlcNAc(b1-6)[Gal(b1-3)]GalNAc
Outline: as §1

[19] = target: GlcNAc(b1-3)Gal(b1-4)GlcNAc(b1-6)[GlcNAc(b1-3)Gal(b1-3)]GalNAc
Outline: as §1

[20] = target: GlcNAc(b1-3)Gal(b1-4)GlcNAc(b1-6)[GlcNAc(b1-3)]Gal(b1-4)GlcNAc
Outline: as §1

GlcNAc(b1-3)GalNAc = target: GlcNAc(b1-3)GalNAc
Outline: as §1

GlcNAc(b1-3)Man = target: GlcNAc(b1-3)Man
Outline: as §1

[21] = target: GlcNAc(b1-3)[GlcNAc(b1-4)][GlcNAc(b1-6)]GlcNAc
Outline: as §1

[22] = target: GlcNAc(b1-3)[GlcNAc(b1-6)]Gal(b1-4)GlcNAc
Outline: as §1

[23] = target: GlcNAc(b1-3)[GlcNAc(b1-6)]GalNAc
Outline: as §1

[24] = target: GlcNAc(b1-4)Gal(b1-4)GlcNAc
Outline: as §1

GlcNAc(b1-4)GlcNAc = target: GlcNAc(b1-4)GlcNAc
Outline: as §1

[25] = target: GlcNAc(b1-4)GlcNAc(b1-4)GlcNAc
Outline: as §1

[26] = target: GlcNAc(b1-4)GlcNAc(b1-4)GlcNAc(b1-4)GlcNAc(b1-4)GlcNAc
Outline: as §1

[27] = target: GlcNAc(b1-4)GlcNAc(b1-4)GlcNAc(b1-4)GlcNAc(b1-4)GlcNAc(b1-4)GlcNAc
Outline: as §1

[28] = target: GlcNAc(b1-4)[GlcNAc(b1-6)]GalNAc
Outline: as §1

[29] = target: GlcNAc(b1-6)Gal(b1-4)GlcNAc
Outline: as §1

GlcNAc(b1-6)GalNAc = target: GlcNAc(b1-6)GalNAc
Outline: as §1

[30] = target: GlcNAc6S(b1-3)Gal(b1-4)GlcNAc
Outline: as §1

Kdn(a2-3)Gal(b1-3)GalNAc = target: Kdn(a2-3)Gal(b1-3)GalNAc
Outline: as §1

Kdn(a2-3)Gal(b1-3)GlcNAc = target: Kdn(a2-3)Gal(b1-3)GlcNAc
Outline: as §1

B1: GS7807G-bfa-506-18-506 (Bacteroides fragilis) (protein)
chain: ASCDKFDEINTDPDATTKVTSSLLATGLLLDITSSSASKSFIYDELLAKQMAWGESMEDYQYNVFGRSGFGGYTTLINAQKMVESVSDDNVNAYDGLAHFIKAYKIFYMSMEMGDLPYEEALQGELGLVRPKYNTQKEVMNFILSDLETAYELFSTAKDFDGDPILGGSISKWKKATTAFQLKVLMHLSKKESDADLKVKERFARIVASGSLMESNEDNLQMKYADKANTVYPFHNTNTKHAGYAMLSTMLIDKFKATGDIRMFYYAKPAKAKLNEGVTADSWDAYIGTDPSLPFEQIEKAYATEQYSGFNARYTDYPSGEPVVRLGYAEQNFILAEAAVRGWISGDASAYYKKAIRAHMEFIASNTPDEEVYHHGHPITEEAIAAFLETPAIQLSGEKEEDIEKILTQRYLASFMQHPYDVYYDYRRTGYPVLPINPATNRNTMNDRLPMRWMYPKSESDYNLEHQNEALERQFGGVDDVNKLMWILQ
glycan array binding signal (z-score) (GlcNAc(b1-3)Gal(b1-4)Glc): -0.386 | glycan array binding signal (z-score) [1]: -0.706 | glycan array binding signal (z-score) [2]: 0.156 | glycan array binding signal (z-score) [3]: 1.14 | glycan array binding signal (z-score) [4]: 0.698 | glycan array binding signal (z-score) [5]: 0.571 | glycan array binding signal (z-score) [6]: 0.363 | glycan array binding signal (z-score) [7]: 0.151 | glycan array binding signal (z-score) [8]: 0.397 | glycan array binding signal (z-score) [9]: 0.543 | glycan array binding signal (z-score) [10]: -0.297 | glycan array binding signal (z-score) [11]: 0.033 | glycan array binding signal (z-score) [12]: -0.286 | glycan array binding signal (z-score) [13]: -0.27 | glycan array binding signal (z-score) [14]: 0.162 | glycan array binding signal (z-score) [15]: -0.601 | glycan array binding signal (z-score) [16]: -0.4 | glycan array binding signal (z-score) [17]: -0.486 | glycan array binding signal (z-score) [18]: -0.548 | glycan array binding signal (z-score) [19]: -0.552 | glycan array binding signal (z-score) [20]: -0.946 | glycan array binding signal (z-score) (GlcNAc(b1-3)GalNAc): -0.787 | glycan array binding signal (z-score) (GlcNAc(b1-3)Man): -0.485 | glycan array binding signal (z-score) [21]: -0.584 | glycan array binding signal (z-score) [22]: -0.679 | glycan array binding signal (z-score) [23]: -0.871 | glycan array binding signal (z-score) [24]: -0.511 | glycan array binding signal (z-score) (GlcNAc(b1-4)GlcNAc): -0.628 | glycan array binding signal (z-score) [25]: 0.019 | glycan array binding signal (z-score) [26]: -0.896 | glycan array binding signal (z-score) [27]: -0.22 | glycan array binding signal (z-score) [28]: -0.758 | glycan array binding signal (z-score) [29]: -0.682 | glycan array binding signal (z-score) (GlcNAc(b1-6)GalNAc): 0.335 | glycan array binding signal (z-score) [30]: -0.63 | glycan array binding signal (z-score) (Kdn(a2-3)Gal(b1-3)GalNAc): -0.399 | glycan array binding signal (z-score) (Kdn(a2-3)Gal(b1-3)GlcNAc): -0.537
